Results are given in words; binding and its absence hold for the method and conditions named. Binding calls can cover weak binding; strength is not graded here.
Target: HLA-A2402 molecule, which is a product of the HLA-A*2402 gene (human)
Assay: cell-based peptide binding experiment, flow cytometry
Details: remark: other sources report otherwise

binding: binds
B1: SEQ ID NO 12 (peptide)
peptide: WVLTAAHCI

Source: patent publication US20080306243A1, “Hla-Binding Peptide, and Dna Fragment and Recombinant Vector Coding for Said Hla-Binding Peptide” (NEC CORPORATION, priority 2005, published 2008)
